Measured values as given in the supplement of paper PMC10849652.
The other results are listed elsewhere or left out.

The chains behind the UniProt entries cited, without tags or fusion partners. Where a name states a change or a piece, a line headed by the entry shows the natural chain unless it says otherwise.
UniProt P78345: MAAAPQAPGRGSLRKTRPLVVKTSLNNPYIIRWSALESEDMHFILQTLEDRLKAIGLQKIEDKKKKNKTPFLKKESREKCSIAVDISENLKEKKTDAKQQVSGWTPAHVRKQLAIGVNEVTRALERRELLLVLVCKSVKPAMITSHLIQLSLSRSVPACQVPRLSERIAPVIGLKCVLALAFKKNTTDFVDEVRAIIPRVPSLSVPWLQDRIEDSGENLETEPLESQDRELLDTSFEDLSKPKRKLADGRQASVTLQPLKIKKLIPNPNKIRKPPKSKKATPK
UniProt Q92901: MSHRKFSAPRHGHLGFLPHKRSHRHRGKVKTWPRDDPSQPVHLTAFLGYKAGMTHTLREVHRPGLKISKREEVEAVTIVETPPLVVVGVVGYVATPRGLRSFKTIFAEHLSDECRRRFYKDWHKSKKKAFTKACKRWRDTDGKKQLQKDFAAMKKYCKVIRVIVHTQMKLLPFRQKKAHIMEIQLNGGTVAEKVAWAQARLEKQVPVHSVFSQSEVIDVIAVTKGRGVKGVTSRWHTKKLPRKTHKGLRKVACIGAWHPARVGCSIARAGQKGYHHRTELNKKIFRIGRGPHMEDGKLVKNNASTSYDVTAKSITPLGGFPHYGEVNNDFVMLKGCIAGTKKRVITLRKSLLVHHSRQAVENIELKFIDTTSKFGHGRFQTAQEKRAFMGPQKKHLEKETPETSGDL
UniProt Q8N122, whole entry, looked up: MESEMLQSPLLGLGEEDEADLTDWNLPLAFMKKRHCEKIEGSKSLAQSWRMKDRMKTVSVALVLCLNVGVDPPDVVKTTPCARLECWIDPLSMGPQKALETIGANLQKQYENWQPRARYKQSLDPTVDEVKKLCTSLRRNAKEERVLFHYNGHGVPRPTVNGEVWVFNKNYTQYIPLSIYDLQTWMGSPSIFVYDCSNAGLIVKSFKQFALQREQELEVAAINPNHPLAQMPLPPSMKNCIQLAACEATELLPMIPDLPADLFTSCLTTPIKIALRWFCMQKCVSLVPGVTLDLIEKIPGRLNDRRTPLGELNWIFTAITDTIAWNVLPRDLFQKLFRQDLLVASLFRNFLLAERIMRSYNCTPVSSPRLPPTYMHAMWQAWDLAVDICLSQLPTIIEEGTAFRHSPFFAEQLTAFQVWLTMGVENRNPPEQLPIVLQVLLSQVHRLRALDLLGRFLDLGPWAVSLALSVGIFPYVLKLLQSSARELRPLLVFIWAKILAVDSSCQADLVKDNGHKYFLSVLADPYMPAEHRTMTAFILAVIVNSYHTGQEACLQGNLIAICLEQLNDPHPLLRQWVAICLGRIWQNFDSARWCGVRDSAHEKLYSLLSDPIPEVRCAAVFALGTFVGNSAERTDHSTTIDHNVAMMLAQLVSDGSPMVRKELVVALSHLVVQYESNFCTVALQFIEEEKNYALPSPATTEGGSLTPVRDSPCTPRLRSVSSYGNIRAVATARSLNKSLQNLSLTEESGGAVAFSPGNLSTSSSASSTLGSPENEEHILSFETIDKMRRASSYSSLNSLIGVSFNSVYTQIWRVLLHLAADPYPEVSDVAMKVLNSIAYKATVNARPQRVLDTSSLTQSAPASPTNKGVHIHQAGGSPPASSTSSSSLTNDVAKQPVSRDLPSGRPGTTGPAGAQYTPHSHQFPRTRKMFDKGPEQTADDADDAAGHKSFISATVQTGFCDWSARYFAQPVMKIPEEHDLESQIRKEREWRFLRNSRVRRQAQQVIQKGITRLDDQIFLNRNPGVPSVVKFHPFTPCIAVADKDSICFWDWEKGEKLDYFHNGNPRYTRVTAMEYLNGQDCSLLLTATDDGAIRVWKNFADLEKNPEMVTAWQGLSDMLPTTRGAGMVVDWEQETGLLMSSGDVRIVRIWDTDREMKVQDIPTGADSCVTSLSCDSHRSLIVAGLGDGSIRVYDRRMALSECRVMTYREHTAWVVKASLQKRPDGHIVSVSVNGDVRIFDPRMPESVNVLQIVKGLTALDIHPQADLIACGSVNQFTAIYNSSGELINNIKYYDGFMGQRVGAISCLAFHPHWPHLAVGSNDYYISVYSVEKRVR
UniProt P78346: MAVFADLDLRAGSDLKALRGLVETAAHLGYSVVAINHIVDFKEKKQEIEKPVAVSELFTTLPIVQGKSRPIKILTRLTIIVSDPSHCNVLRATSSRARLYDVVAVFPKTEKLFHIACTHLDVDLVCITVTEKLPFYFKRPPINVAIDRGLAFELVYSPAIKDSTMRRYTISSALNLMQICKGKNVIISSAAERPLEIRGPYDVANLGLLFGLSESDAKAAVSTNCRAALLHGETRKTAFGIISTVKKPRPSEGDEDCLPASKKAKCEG
UniProt Q15418, whole entry, looked up: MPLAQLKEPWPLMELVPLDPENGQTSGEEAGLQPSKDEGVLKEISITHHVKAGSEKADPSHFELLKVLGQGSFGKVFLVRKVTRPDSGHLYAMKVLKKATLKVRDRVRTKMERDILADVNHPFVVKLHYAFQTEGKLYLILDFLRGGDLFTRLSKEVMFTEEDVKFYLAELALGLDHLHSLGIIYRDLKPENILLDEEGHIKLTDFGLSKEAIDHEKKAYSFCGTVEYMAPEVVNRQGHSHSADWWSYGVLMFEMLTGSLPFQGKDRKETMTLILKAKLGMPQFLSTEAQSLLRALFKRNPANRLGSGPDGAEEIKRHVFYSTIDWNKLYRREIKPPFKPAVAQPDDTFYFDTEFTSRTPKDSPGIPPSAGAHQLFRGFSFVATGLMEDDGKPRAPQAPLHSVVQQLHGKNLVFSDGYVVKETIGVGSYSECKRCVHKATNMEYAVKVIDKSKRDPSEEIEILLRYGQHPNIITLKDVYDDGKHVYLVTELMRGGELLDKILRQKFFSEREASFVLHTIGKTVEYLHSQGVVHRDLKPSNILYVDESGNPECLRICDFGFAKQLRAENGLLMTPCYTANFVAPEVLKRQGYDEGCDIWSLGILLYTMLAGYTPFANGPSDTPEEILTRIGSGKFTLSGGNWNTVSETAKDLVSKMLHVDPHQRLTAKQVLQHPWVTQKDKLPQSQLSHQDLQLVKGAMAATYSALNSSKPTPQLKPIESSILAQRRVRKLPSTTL
UniProt Q9H4A4: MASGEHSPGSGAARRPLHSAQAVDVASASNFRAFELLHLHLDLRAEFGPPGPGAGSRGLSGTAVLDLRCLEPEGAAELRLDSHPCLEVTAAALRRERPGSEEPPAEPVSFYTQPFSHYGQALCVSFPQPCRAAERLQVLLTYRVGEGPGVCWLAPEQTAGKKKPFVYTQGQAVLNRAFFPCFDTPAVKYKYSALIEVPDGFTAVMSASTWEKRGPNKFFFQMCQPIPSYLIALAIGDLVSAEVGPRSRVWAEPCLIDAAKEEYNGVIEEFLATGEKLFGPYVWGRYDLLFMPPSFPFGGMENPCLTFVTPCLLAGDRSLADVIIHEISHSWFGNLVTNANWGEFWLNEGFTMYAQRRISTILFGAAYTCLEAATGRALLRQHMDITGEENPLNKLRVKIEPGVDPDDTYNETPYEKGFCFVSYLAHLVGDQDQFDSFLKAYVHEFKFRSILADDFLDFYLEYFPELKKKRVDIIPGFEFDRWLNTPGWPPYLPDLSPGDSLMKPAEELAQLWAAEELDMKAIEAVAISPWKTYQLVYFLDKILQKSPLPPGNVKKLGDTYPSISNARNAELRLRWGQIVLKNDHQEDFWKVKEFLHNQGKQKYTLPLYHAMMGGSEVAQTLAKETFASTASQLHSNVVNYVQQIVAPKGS
UniProt P23443: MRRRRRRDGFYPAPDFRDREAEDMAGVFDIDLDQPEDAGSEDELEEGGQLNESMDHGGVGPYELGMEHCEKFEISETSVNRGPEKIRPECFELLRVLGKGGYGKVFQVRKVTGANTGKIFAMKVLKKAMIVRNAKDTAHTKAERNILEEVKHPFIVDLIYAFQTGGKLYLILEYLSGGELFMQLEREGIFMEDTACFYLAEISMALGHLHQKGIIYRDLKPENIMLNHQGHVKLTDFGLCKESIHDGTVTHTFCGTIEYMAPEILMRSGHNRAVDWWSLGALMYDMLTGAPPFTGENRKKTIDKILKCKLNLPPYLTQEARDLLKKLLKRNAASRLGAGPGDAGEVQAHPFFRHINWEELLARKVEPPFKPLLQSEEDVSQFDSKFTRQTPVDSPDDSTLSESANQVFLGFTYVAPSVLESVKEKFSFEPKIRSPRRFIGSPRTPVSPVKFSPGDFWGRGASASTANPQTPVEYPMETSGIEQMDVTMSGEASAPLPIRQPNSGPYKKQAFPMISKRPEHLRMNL
UniProt Q15349, whole entry, looked up: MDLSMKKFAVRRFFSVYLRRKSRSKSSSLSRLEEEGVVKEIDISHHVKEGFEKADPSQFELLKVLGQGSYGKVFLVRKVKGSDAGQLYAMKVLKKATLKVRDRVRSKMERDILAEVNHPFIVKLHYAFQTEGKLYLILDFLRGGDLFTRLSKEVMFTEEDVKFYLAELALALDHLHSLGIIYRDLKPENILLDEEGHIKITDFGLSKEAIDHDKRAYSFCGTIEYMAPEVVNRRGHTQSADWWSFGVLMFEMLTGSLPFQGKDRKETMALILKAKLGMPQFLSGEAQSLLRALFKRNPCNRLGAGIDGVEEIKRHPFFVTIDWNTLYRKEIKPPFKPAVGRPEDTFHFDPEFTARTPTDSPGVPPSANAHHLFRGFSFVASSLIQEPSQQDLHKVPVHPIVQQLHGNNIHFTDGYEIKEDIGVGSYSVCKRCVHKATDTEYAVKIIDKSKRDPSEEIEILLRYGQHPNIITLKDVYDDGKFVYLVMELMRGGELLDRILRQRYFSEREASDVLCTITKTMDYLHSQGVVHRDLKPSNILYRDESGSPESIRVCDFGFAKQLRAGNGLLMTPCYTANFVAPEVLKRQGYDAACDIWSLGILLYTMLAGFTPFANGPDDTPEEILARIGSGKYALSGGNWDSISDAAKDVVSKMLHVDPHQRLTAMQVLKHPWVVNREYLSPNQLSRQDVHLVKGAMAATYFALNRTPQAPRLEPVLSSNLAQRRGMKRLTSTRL
UniProt Q9H633: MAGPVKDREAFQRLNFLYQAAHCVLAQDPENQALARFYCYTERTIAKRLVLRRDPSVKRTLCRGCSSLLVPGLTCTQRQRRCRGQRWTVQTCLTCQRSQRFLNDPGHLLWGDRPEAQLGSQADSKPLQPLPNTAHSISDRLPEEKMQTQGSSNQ
UniProt Q969K3: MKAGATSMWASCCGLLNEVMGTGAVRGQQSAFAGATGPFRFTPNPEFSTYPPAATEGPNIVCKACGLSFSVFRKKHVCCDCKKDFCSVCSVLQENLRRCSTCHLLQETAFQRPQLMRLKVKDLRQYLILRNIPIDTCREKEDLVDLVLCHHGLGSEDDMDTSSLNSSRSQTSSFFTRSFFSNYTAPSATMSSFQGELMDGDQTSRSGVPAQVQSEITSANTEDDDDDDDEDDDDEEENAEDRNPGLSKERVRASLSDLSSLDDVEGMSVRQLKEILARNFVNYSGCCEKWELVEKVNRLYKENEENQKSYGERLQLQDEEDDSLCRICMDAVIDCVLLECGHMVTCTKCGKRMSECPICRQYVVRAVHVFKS
UniProt Q15287: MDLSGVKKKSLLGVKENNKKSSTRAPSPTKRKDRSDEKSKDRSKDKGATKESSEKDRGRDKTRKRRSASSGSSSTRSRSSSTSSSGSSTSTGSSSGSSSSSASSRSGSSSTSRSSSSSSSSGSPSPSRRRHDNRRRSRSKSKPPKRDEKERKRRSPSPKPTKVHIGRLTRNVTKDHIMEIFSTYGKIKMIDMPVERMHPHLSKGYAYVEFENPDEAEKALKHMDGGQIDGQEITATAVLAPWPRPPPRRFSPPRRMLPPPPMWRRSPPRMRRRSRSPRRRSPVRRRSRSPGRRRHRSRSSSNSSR
UniProt Q9UBF6, whole entry, looked up: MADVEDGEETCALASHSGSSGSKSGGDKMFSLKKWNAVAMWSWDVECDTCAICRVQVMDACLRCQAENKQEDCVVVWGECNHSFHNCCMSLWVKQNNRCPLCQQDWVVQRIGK
UniProt P04843: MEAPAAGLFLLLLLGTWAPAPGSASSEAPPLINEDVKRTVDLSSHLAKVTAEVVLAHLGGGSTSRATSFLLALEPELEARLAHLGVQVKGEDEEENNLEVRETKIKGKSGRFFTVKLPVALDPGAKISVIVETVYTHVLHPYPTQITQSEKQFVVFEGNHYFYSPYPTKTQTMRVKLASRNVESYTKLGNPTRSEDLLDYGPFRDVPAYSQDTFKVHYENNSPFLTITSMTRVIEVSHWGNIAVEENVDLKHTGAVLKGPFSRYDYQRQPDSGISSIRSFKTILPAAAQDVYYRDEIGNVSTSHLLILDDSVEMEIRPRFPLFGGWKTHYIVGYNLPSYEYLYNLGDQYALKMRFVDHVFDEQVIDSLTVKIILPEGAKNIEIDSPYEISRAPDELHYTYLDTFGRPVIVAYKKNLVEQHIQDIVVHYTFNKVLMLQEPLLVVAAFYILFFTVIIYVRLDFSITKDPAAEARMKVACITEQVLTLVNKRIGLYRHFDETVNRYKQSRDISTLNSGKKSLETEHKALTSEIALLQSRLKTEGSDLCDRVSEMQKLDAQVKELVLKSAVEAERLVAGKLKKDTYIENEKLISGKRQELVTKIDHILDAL

Compound: C1=CC2=C(C=CC(=C2)/C=C\3/C(=O)NC(=NCC4=CC=CS4)S3)N=C1
Assay: log2 fold change, soluble protein after heating vs DMSO (PISA); higher = thermal stabilisation; K562 cells, 10 uM, 30 min; active = over 0.2 and 3.5 SD of the protein, either way, in both replicates (recomputed)
Outline: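 Thermal stability values are relative to control samples and come from duplicates. They are expressed as log2 fold changes. For measurement, K562 cells (2×10^6 cells/mL) received 10 μM compound for 30 min, and aliquots were heated for 3 min over 48°C-58°C, pooled, and extracted at 4°C in PBS with 0.5% NP-40. Soluble protein, the supernatant after 21,000xg for 90 min, was quantified by TMTpro 16plex LC-MS/MS with equalised channel sums.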

log2 fold change, inactive:
RPLP2 (UniProt P05387) -0.136, RPP38 (UniProt P78345) -0.036, RPL29 (UniProt P47914) -0.251, RPL36 (UniProt Q9Y3U8) -0.169, RPS18 (UniProt P62269) -0.037, RPS3 (UniProt P23396) -0.026, RPL3L (UniProt Q92901) -0.185, RPTOR (UniProt Q8N122) 0.039, RPL10 (UniProt P27635) -0.198, RNH1 (UniProt P13489) 0.028, RPA1 (UniProt P27694) -0.005, RPP30 isoform 2 (UniProt P78346) 0.001, RPS6KA1 isoform 2 (UniProt Q15418) 0.034, RNPEP (UniProt Q9H4A4) 0.009, RPS6KB1 (UniProt P23443) -0.007, RPL18A (UniProt Q02543) -0.201, RO60 (UniProt P10155) -0.001, RPS3A (UniProt P61247) -0.039, RPS6KA2 isoform 2 (UniProt Q15349) 0.07, RPL28 (UniProt P46779) -0.21, RPS12 (UniProt P25398) -0.021, RPS6KC1 (UniProt Q96S38) 0.157, RNMT isoform 2 (UniProt O43148) 0.119, RPP21 isoform 4 (UniProt Q9H633) -0.054, RPS4X (UniProt P62701) -0.042, RPS24 isoform 4 (UniProt P62847) -0.095, RPL23A (UniProt P62750) -0.133, RPS19 (UniProt P39019) -0.082, RPA2 isoform 3 (UniProt P15927) 0.087, RNF34 isoform 2 (UniProt Q969K3) -0.029, RPL3 (UniProt P39023) -0.197, RPL35 (UniProt P42766) -0.157, RNPS1 (UniProt Q15287) 0.164, RRAGB (UniProt Q5VZM2) -0.13, RNF7 (UniProt Q9UBF6) 0.019, RPN1 (UniProt P04843) 0.012, RPL8 (UniProt P62917) -0.456, RPL19 (UniProt P84098) -0.208, RPS17 (UniProt P08708) -0.057, RPS27A (UniProt P62979) -0.136
